The results in this text go back to publication PMC11814420.

Sequences of proteins named here, by UniProt entry; tags and fusion partners are left off. Residues count along the entry.
UniProt Q5VW38, residues 40-600: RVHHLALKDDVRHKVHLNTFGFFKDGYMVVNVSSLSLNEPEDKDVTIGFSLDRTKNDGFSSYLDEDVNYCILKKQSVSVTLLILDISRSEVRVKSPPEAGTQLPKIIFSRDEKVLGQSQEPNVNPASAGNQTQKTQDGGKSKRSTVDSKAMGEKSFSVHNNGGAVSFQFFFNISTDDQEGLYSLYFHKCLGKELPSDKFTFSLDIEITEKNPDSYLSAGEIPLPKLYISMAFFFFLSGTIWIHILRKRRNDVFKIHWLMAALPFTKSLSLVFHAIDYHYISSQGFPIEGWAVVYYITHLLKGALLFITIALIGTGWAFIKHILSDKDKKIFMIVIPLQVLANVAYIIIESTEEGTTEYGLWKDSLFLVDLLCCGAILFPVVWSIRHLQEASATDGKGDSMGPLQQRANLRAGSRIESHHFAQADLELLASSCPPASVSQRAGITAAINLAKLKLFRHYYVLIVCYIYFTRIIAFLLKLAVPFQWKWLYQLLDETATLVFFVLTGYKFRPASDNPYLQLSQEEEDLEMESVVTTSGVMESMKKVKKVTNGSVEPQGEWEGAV

In assay [1] the target is Flag-tagged GPR107 (G protein-coupled receptor 107) (UniProt Q5VW38). Briefly: co-IP; two tagged proteins co-expressed in HPC (Flag-GPR107 with His-AT1R, or with HA-clathrin); co-IP and immunoblotting with antibodies against the tags or the proteins. (In western blotting, separated proteins are transferred to a membrane and probed.)
Assay [2] has as its target endogenous angiotensin II receptor type 1 (AT1R) (human (endogenous in HPC)) (UniProt P30556). Nature of the assay: co-IP; endogenous proteins of HPC immunoprecipitated with an anti-AT1R antibody, then immunoblotting.
In assay [3] the target is Flag-tagged GPR107 (G protein-coupled receptor 107) (UniProt Q5VW38). Nature of the assay: co-IP; Flag-tagged GPR107 expressed in HPC cells and used for the co-IP; endogenous partners detected by immunoblotting.

These are yes or no findings as the source states them, for the method shown. Binding seen in cells or lysates may run through a third protein. Some binding calls cover weakened binding; strength is not graded here.

Regarding “His-tagged AT1R (from UniProt P30556 1-359) (receptor)”, in assay [1], the binding entry is on record as “binds”.

For the substance “endogenous GPR107 (from UniProt Q5VW38 40-600) (receptor)”, the binding result in assay [2] is reported as “binds”.

For the substance “endogenous angiotensin II receptor type 1 (AT1R) (from UniProt P30556 1-359)”, in assay [3], the binding entry is on record as “binds”.
